Measured values reported in US8871900B2, “Fibroblast growth factor (FGF) analogs and uses thereof” (University of Rochester, priority 2008, dated 2014).
These are yes or no findings as the source states them, for the method shown. Some results given as binding are weak or reduced against the parent protein; the word gives no strength.

The chains behind the UniProt entries cited, without tags or fusion partners. Residues count along the entry.
UniProt P11362, residues 22-376: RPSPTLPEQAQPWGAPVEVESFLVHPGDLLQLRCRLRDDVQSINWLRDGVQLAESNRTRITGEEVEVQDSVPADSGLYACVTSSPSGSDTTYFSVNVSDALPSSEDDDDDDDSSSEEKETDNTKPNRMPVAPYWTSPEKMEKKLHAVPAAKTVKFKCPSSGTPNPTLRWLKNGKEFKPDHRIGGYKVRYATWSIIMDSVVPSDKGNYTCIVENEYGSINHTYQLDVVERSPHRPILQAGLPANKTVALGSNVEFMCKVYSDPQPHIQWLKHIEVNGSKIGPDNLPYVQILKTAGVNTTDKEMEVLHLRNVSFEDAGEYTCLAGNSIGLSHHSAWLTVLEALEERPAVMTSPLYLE

Molecular target: human FGFR1 (Homo sapiens, UniProt P11362)
Experiment: Biacore (SPR)

binding: binds
Binder: CYRSRKYSSWYVALKRC [FGF-P]
